Construct, isoform or probe ends are uncertain for at least one entry. At least one verdict rests on a figure or table, not on a statement of the authors.
Tested on: Ku70/80 (Ku70 subunit) + Ku70/80 (Ku80 subunit) + Pol λ WT
Assay: EMSA supershift
Conditions: 20 nM Ku, 50 nM Pol λ; 5'-phosphate on the 13-mer; EMSA: 50 mM Tris-HCl pH 7.5, 100 mM KCl, 2.5 mM MgCl2, 1 mM DTT, 4% glycerol, 0.05% Triton X-100, 0.1 mg/ml BSA, 10-20 nM DNA, 30 min at 25 °C; 4-5% native PAGE; recombinant protein; protein details: FLAG,FLAG,FLAG; label: IRDye 700 at 5' end of S5

Sequence: ACTGGCCGTCGTTCTATTGTACTCACTGTGATC / GATCACAGTGAGTAC / AACGACGGCCAGT [5nt-gapped dsDNA 33-mer]
- binding result: binds

Reference: article PMC6155126
